Measured values taken from article doi:10.1101/2024.09.19.613899.
Results are given in words; binding and its absence hold for the method and conditions named. In cells and extracts the contact can be indirect. These calls come from enrichment with a bait or labelling near it, and not all partners need be listed.

Protein sequences, listed by entry. Tags and fused reporters are not part of them.
UniProt F1N4J1: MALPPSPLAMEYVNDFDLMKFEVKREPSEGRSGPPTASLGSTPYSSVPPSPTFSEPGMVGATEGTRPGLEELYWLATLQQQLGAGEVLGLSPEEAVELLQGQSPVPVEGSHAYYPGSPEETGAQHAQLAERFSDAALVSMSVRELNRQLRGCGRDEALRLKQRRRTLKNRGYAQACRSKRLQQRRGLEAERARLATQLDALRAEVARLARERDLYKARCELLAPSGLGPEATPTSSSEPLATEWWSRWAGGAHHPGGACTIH
UniProt Q9XSK0: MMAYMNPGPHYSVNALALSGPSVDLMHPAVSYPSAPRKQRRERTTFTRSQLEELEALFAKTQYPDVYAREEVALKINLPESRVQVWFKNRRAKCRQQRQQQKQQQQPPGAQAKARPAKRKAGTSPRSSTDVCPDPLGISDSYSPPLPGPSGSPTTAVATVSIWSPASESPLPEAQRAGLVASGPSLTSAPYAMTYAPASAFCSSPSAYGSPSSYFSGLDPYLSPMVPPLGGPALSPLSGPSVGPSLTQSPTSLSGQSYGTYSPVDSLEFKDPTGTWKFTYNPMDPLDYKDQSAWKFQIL
UniProt A0A3Q1M155: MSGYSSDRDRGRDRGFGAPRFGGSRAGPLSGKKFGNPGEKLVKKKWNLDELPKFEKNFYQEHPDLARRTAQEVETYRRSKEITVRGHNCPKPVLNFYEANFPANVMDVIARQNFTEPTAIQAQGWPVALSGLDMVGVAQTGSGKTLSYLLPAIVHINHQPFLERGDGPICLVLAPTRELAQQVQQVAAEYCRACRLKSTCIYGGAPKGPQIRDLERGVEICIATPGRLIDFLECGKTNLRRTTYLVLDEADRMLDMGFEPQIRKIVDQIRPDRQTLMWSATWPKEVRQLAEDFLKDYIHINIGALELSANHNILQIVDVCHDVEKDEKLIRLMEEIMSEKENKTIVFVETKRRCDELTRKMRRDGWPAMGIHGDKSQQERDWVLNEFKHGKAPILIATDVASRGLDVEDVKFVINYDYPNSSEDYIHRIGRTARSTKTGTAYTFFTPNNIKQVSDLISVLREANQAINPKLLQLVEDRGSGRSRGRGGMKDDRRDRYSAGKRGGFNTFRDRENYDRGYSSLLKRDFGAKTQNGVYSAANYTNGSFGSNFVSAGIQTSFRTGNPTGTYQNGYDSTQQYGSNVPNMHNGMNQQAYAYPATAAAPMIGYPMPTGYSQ
UniProt Q28141: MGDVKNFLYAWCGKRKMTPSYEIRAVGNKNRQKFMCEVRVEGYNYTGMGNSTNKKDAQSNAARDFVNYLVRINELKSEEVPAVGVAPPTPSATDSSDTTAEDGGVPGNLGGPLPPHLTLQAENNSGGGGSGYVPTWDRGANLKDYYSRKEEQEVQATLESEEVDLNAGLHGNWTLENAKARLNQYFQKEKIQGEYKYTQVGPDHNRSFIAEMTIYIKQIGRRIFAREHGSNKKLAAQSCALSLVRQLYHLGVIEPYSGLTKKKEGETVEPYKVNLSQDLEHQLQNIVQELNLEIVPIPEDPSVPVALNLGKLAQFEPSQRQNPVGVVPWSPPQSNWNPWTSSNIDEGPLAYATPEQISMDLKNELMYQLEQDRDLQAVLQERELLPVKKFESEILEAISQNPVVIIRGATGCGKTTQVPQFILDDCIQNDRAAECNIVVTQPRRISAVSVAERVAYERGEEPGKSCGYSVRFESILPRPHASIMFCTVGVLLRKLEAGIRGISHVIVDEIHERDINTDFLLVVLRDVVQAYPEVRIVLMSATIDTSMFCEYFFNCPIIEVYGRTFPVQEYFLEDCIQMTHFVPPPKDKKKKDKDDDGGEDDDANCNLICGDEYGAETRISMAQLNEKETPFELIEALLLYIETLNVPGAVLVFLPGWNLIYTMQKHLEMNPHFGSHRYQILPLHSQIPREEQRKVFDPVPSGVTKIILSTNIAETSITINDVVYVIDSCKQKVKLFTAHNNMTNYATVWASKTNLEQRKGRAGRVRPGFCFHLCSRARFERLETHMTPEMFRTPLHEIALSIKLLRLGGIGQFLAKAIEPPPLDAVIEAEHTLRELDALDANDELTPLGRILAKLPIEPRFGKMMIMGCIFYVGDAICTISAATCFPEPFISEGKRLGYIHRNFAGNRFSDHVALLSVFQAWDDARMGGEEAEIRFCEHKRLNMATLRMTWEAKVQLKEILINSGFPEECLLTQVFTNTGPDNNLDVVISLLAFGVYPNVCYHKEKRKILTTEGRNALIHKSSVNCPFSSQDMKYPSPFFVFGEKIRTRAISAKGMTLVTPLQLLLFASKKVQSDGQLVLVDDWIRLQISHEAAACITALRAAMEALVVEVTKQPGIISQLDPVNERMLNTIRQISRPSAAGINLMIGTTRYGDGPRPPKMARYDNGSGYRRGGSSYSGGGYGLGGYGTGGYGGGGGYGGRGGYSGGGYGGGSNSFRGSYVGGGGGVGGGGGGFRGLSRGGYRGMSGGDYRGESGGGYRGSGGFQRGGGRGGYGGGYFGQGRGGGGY
UniProt Q9TTF0: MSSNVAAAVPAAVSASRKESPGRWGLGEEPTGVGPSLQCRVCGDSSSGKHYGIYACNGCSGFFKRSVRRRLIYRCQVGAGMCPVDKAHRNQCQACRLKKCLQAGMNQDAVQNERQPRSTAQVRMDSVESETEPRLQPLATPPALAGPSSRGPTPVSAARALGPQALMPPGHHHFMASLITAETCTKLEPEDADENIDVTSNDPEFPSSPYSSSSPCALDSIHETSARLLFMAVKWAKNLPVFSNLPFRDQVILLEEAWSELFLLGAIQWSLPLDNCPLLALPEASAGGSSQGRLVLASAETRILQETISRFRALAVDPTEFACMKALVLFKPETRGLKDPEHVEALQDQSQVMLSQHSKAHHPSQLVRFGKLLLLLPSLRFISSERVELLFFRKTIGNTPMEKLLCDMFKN
UniProt P54845: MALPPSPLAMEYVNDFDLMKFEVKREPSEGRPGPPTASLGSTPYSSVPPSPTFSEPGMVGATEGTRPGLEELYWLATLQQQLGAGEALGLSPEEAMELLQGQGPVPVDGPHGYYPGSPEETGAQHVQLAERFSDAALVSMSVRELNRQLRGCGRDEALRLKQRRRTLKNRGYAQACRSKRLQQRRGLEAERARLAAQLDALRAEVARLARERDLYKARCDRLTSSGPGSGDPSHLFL
UniProt P09867: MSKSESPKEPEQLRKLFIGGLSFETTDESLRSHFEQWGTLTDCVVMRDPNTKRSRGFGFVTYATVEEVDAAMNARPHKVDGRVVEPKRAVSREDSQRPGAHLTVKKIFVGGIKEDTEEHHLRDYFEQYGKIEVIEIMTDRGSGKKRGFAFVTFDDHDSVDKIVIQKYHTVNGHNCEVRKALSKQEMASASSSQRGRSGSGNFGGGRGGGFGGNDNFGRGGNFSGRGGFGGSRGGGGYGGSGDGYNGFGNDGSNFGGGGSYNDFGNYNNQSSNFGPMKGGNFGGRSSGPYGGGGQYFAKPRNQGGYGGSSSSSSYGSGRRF
UniProt Q2HJ60: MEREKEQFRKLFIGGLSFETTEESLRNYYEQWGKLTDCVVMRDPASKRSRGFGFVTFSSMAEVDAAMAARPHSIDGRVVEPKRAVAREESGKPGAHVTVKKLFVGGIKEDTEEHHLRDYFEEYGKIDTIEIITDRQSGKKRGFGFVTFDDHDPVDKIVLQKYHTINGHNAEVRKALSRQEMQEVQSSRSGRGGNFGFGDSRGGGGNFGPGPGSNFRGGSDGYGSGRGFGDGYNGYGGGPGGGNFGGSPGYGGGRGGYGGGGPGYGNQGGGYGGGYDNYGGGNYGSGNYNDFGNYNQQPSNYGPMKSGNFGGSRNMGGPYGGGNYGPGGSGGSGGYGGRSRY
UniProt P54846: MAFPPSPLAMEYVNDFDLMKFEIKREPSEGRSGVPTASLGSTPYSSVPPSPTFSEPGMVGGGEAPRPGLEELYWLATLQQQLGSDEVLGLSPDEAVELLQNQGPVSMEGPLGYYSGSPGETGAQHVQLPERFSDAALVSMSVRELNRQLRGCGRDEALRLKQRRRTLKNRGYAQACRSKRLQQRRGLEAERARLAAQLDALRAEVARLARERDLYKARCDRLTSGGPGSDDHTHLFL
UniProt O70133: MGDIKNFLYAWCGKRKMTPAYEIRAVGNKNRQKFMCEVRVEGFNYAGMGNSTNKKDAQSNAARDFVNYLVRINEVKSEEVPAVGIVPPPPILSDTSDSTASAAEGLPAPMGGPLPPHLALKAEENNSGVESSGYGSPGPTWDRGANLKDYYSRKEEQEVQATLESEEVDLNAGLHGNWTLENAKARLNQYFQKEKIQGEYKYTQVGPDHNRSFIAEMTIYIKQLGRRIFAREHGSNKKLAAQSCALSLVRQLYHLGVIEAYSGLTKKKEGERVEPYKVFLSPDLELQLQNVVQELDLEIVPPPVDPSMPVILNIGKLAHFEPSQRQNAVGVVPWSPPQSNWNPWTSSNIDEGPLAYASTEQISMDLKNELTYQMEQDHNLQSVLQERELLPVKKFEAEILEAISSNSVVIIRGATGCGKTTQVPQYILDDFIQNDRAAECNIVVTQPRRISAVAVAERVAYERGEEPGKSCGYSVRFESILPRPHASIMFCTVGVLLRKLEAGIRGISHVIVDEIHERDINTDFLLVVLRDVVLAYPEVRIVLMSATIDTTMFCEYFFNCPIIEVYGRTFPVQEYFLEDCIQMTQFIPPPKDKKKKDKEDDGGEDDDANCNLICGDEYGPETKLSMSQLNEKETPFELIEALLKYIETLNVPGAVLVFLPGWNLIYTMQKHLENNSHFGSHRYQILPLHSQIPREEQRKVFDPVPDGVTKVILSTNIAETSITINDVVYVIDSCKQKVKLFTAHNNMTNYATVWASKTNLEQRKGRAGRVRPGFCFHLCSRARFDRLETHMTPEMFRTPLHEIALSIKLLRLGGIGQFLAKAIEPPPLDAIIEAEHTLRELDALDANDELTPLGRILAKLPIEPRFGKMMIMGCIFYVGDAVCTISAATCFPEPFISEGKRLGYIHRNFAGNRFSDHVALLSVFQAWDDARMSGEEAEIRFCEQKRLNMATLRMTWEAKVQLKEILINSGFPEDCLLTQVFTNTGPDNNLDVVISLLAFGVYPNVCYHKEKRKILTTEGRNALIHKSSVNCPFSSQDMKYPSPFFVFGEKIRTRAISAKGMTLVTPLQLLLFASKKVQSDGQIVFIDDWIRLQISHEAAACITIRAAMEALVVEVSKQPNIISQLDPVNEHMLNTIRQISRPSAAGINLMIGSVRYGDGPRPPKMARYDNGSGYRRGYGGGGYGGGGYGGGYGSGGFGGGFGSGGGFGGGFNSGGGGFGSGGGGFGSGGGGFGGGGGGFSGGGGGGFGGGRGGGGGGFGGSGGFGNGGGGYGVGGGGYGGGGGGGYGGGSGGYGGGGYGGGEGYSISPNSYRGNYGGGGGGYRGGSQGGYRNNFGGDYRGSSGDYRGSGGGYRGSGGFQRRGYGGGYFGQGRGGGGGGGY

B1: NonO/p54^nrb (bovine retina) (protein, UniProt Q2KJ42 1-470)
chain: MQSNKTFNLEKQNHTPRKHHQHHHQQHHQQQQQQPPPPPMPANGQQASSQNEGLTIDLKNFRKPGEKTFTQRSRLFVGNLPPDITEEEMRKLFEKYGKAGEVFIHKDKGFGFIRLETRTLAEIAKVELDNMPLRGKQLRVRFACHSASLTVRNLPQYVSNELLEEAFSVFGQVERAVVIVDDRGRPSGKGIVEFSGKPAARKALDRCSEGSFLLTTFPRPVTVEPMDQLDDEEGLPEKLVIKNQQFHKEREQPPRFAQPGSFEYEYAMRWKALIEMEKQQQDQVDRNIKEAREKLEMEMEAARHEHQVMLMRQDLMRRQEELRRMEELHNQEVQKRKQLELRQEEERRRREEEMRRQQEEMMRRQQEGFKGTFPDAREQEIRMGQMAMGGAMGINNRGAMPPAPVPAGTPAPPGPATMMPDGTLGLTPPTTERFGQAATMEGIGAIGGTPPAFNRAAPGAEFAPNKRRRY

What follows are molecules tested against NRL (bovine retina) (bovine (endogenous in bovine retina)) (UniProt F1N4J1) (assay: affinity purification with mass spectrometry; bovine retinal nuclear extract, Sephacryl S-300 peaks of 650 and 450 kDa containing NRL, immunoprecipitated with NRL antibody/protein A beads overnight at 4°C; LC-MS-MS; IgG control).
With “CRX, cone rod homeobox (bovine retina) (from UniProt Q9XSK0 1-299)” the binding was “binds”. In the case of “DDX5 (bovine retina) (from UniProt A0A3Q1M155 1-614)”, the binding is reported as “binds”. “DHX9 RNA helicase (bovine retina) (from UniProt Q28141 1-1287)” was tested, and the binding was “binds”. “NR2E3 (bovine retina) (from UniProt Q9TTF0 1-411)” was tested, and the binding was “binds”. With B1 the binding was “binds”.

What follows are molecules tested against human NRL fused to GST (human) (UniProt P54845) (assay: affinity purification with mass spectrometry; GST-NRL on Glutathione Sepharose beads incubated 2 hr at 4°C with nuclear fraction from bovine retina; LC-MS-MS; n = 3, GST only as control; only the target purified).
“DHX9 RNA helicase (bovine retina) (from UniProt Q28141 1-1287)” was tested, and the binding was “binds”. In the case of “HNRNPA1 (bovine retina) (from UniProt P09867 1-320)”, the binding is reported as “binds”. In the case of “HNRNPA2B1 (bovine retina) (from UniProt Q2HJ60 1-341)”, the binding is reported as “binds”.

What follows are molecules tested against NRL (mouse retina) (mouse (endogenous in mouse retina)) (UniProt P54846) (assay: affinity purification with mass spectrometry; NRL co-IP from mouse retina nuclear extracts; LC-MS-MS; n = 2, IgG control).
For “DHX9 (mouse retina) (from UniProt O70133 1-1380)”, the binding was “binds”.
